Where a name gives a salt, the structure may show the parent alone. The list shows a part of the results. Most entries show no effect beyond the scatter of the controls.
Columns and labels:
Conditions in all cases: 5 µM; treatment: days 7-14 after plating, readout day 21
[1] = test system: hPSC-derived cortical neurons (WA09); assay: nucleus area z-score vs screen plate; higher = larger nuclei (more mature)
[2] = test system: hPSC-derived cortical neurons (WA09); assay: total neurite length per nucleus (MAP2) z-score; higher = more neurite growth
[3] = test system: hPSC-derived cortical neurons (WA09); assay: nucleus roundness z-score vs screen plate; higher = rounder nuclei (more mature)
[4] = test system: hPSC-derived cortical neurons (WA09); assay: KCl-induced FOS+/EGR-1+ double-positive nuclei fraction z-score (KCl minus unstimulated); higher = stronger activity-induced IEG response

Structure (SMILES)	nucleus area z-score [1]	total neurite length per nucleus (z-score) [2]	nucleus roundness z-score [3]	KCl-induced FOS+/EGR-1+ double-positive nuclei fraction z-score [4]
COC1=C(OC)C(=O)C(CCCCCCCCCCO)=C(C)C1=O [Idebenone]	1.46	0.387	0.725	1.47
COc1cc2c(cc1Cc1cccc(Cl)c1F)c(=O)c(C(=O)O)cn2[C@H](CO)C(C)C [Elvitegravir (GS-9137_ JTK-303)]	2.16	-1.12	-0.302	-0.342
Cc1c(N)c(=O)n(-c2ccccc2)n1C [4-Aminoantipyrine]	0.694	0.74	0.328	0.794
Clc1ccc(C(Cn2ccnc2)OCc2ccsc2Cl)c(Cl)c1 (stereo not given) [Tioconazole]	-0.656	0.43	0.588	0.136
O=S(=O)(c1ccccc1)N(CC(F)(F)F)c1ccc(C(O)(C(F)(F)F)C(F)(F)F)cc1	0.358	-0.213	-1.35	-0.253
Cc1cc(C)c2c(c1)[C@@H](N(Cc1cc(C(F)(F)F)cc(C(F)(F)F)c1)c1nnn(C)n1)CCCN2C[C@H]1CC[C@H](C(=O)O)CC1	0.817	0.275	0.767	-0.208
CCCC(=O)[O-].[Na+] [Sodium butyrate]	0.17	0.568	-0.0265	0.61
N#Cc1ccc2[nH]cc(CCCCN3CCN(c4ccc5oc(C(N)=O)cc5c4)CC3)c2c1 [Vilazodone HCl]	-1.61	-0.709	0.182	-0.429
CCOC(=O)[N-]c1c[n+](N2CCOCC2)no1 [Molsidomine]	-1.32	-0.476	0.264	-0.237
CS(=O)(=O)N1CCc2c(-c3cnc(N)nc3)nc(N3CCOCC3)nc21	-0.979	-0.0937	-0.56	-1.1
CC(C)OC(=O)OCOP(=O)(CO[C@H](C)Cn1cnc2c(N)ncnc21)OCOC(=O)OC(C)C [Tenofovir Disoproxil Fumarate]	-0.191	0.776	-0.0656	-1.23
Cc1ccc(F)c(NC(=O)Nc2ccc(-c3cccc4[nH]nc(N)c34)cc2)c1 [Linifanib (ABT-869)]	1.66	-0.00444	0.233	-1.25
O=S(=O)(NCCSSCCNS(=O)(=O)c1cc(Cl)ccc1Cl)c1cc(Cl)ccc1Cl	0.31	-0.72	-0.98	-0.101
CCCC(=O)Nc1ncnc2c1ncn2[C@@H]1O[C@@H]2COP(=O)(O)O[C@H]2[C@H]1OC(=O)CCC [Dibutyryl-cAMP (Bucladesine)]	-0.0438	0.477	0.652	2.16
O[C@@H](COc1cccc2ncccc12)CN1CCN(C2c3ccccc3[C@@H]3[C@H](c4ccccc42)C3(F)F)CC1 (stereo not given in full)	-2.38	-0.988	-1.28	-0.505

Some of the entries above in a different format.
Structure (SMILES) | nucleus area z-score [1] | total neurite length per nucleus (z-score) [2] | nucleus roundness z-score [3] | KCl-induced FOS+/EGR-1+ double-positive nuclei fraction z-score [4]
COC1=C(OC)C(=O)C(CCCCCCCCCCO)=C(C)C1=O [Idebenone] | 1.46 | 0.387 | 0.725 | 1.47
COc1cc2c(cc1Cc1cccc(Cl)c1F)c(=O)c(C(=O)O)cn2[C@H](CO)C(C)C [Elvitegravir (GS-9137_ JTK-303)] | 2.16 | -1.12 | -0.302 | -0.342
CCOC(=O)[N-]c1c[n+](N2CCOCC2)no1 [Molsidomine] | -1.32 | -0.476 | 0.264 | -0.237
CS(=O)(=O)N1CCc2c(-c3cnc(N)nc3)nc(N3CCOCC3)nc21 | -0.979 | -0.0937 | -0.56 | -1.1
